At least one structure is not confirmed: it was looked up by name or label, or the drawing left a doubt.
How the values were obtained:
[1] = system: ischemic tissue in aged mice; conditions: intraperitoneal (IP) injections; cited from earlier work
CD31 = CD31 immunohistochemistry of pressure ulcer sections; assay type: in vivo, C57B1/6 mice; conditions: pressure ulcers of aged mice, intra-peritoneal DFO vs PBS control, p<0.05
[2] = system: wounds in diabetic and aged mice; conditions: DFO solution, topical; cited from earlier work
apoptosis = assay: TUNEL assay of pressure ulcer sections; assay type: in vivo, C57B1/6 mice; conditions: pressure ulcers of aged mice, intra-peritoneal DFO vs PBS control, p<0.05
[3] = system: pressure ulcer in aged mice; assay: Pressure ulcer model in aged mice (magnet ischemia-reperfusion); assay type: in vivo, C57B1/6 mice; conditions: aged mice (at least 21 months), vs PBS control

## CC(=O)N(O)CCCCCNC(=O)CCC(=O)N(O)CCCCCNC(=O)CCC(=O)N(O)CCCCCN [DFO]
[1]
  survival of ischemic tissue: improve survival of ischemic tissue
CD31
  neovascularization (CD31 positive pixels per HPF): two-fold increase
[2]
  wound healing: improve wound healing in both diabetic and aged mice
apoptosis
  apoptosis (TUNEL positive pixels per HPF): two-fold decrease
[3]; intra-peritoneal DFO every other day from the day before ulcer formation
  incidence of ulcer formation: decreased incidence of ulcer formation
[3]; intra-peritoneal DFO every other day
  grade of ulceration: lesser grade ulceration
